The chains behind the UniProt entries cited, without tags or fusion partners. Where a name states a change or a piece, a line headed by the entry shows the natural chain unless it says otherwise.
UniProt P28845: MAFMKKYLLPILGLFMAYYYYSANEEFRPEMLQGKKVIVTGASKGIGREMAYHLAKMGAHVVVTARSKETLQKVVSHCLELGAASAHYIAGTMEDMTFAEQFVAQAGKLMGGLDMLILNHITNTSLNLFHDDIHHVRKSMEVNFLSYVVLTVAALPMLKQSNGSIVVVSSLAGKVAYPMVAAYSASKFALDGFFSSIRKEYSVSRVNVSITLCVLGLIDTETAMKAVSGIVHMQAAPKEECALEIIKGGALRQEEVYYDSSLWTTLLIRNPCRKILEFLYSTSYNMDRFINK

According to patent publication US9090605B2, “Substituted 5-,6- and 7-membered heterocycles, medicaments containing such compounds, and their use” (Vitae Pharmaceuticals, Inc., priority 2010, dated 2015):

Target: 11β-HSD1 (Homo sapiens, UniProt P28845)
Test: Inhibition of a microsomal preparation of 11β-HSD1, scintillation proximity assay, microsomes from CHO cells overexpressing human 11β-HSD1 (biological test example 2)
Format: biochemical
Parameters: expressed in transfected cells; host or cells: CHO cells (microsomes isolated from them)
Settings: microsomes from CHO cells overexpressing human 11β-HSD1, SPA, [3H]cortisone, 90 minutes at room temperature; read-out: IC50, inhibitory activity on 11β-HSD 1
Description: All reactions were carried out at room temperature in 96 well clear flexible PET Microbeta plates (PerkinElmer). The assay begins by dispensing 49 μl of substrate solution [50 mM HEPES, pH 7.4, 100 mM KCl, 5 mM NaCl, 2 mM MgCl2, 2 mM NADPH and 160 nM [^3H]cortisone (1 Ci/mmol)] and mixing in 1 μL of the test compounds in dimethyl sulfoxide previously diluted in half-log increments (8 points) starting at 0.1 mM. After a 10 minute pre-incubation, 50 μL of enzyme solution containing microsomes isolated from CHO cells overexpressing human 11β-HSD1 (10-20 μg/ml of total protein) was added, and the plates were incubated for 90 minutes at room temperature. The reaction was stopped by adding 50 μl of the SPA beads suspension containing 10 μM 18β-glycyrrhetinic acid, 5 mg/ml protein A coated YSi SPA beads (GE Healthcare) and 3.3 μg/ml of anti-cortisol antibody (East Coast Biologics) in Superblock buffer (Bio-Rad). The plates were shaken for 120 minutes at room temperature, and the SPA signal corresponding to [^3H]cortisol was measured on a Microbeta plate reader.

`C[C@@H](c1ccc(-c2cnc(N3CC(F)(F)C3)nc2)cc1)N1CC[C@](CC(C)(C)O)(c2ccccc2)OC1=O` [Example 33, 3-((S)-1-{4-[2-(3,3-difluoroazetidin-1-yl)pyrimidin-5-yl]phenyl}ethyl)-(S)-6-(2-hydroxy-2-methylpropyl)-6-phenyl-1,3-oxazinan-2-one] gave an IC50 of 0.8 nM.
